# In patent US7183376:
# The chains behind the UniProt entries cited, without tags or fusion partners. Residues count along the entry.
# UniProt P16410, residues 36-161: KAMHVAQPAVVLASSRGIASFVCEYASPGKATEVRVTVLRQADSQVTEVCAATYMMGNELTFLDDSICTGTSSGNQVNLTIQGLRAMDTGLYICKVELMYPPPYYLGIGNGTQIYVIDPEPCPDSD
# UniProt P10747, residues 19-152: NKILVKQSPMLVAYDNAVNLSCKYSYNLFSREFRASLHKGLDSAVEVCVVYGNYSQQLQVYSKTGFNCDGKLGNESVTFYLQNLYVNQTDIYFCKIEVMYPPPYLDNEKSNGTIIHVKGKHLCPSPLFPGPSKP
# No constants are given. Whether binding was seen depends on the method and setting. Some results given as binding are weak or reduced against the parent protein; the word gives no strength.
# Columns and labels:
# [1] = molecular target: soluble CTLA-4-Ig Fc fusion protein (extracellular domain of human CTLA-4 and Fc portion of human IgG1; R&D Systems) (human) (UniProt P16410); experiment: flow cytometry of transfected cells with labeled receptor-Ig
# [2] = molecular target: soluble CD28-Ig Fc fusion protein (extracellular domain of human CD28 and Fc portion of human IgG1; R&D Systems) (human) (UniProt P10747); experiment: as above
binder,measurement,setting,value
Round 1 CD28BP-118 (Clone 118) (ligand) GISQVTKSVKEMAALSCDYNISIDELARMRIYWQKDQQMVLSIISGQVEVWPEYKNRTFPDIINNLSLMILALRLSDKGTYTCVVQKNENGSFRREHLTSVTLSIRADFPVPSITDIGHPAPNVKRIRCSASGDFPEPRLAWMEDGEELNAVNTTVDQDLDTELYSVSSELDFNVTNNHSIVCLIKYGELSVSQIFPWSKPKQEPPIDQLPFWVIIPVSGALVLTAVVLYCLACRHVARWKRTRRNEETVGTERLSPIYLGSAQSSG,binding,[1],binds
same,binding,[2],binds
